This list was built around the results that the source calls inconclusive (neither active nor inactive); the mix of calls is not that of the screen. For some assays here: A potency beside an inconclusive call is a rough fit, not a confirmed value. Activity calls are given as the source filed them. Calls follow the shape of the dose curve; as a rule, active = well fitted curve in the direction sought with a large enough effect; inconclusive = small, poorly fitted or top-dose-only effect, or another doubt; inactive = no such curve, though single readings can be large; an effect the other way counts as inactive or inconclusive.
Experiments:
[1] = Quantitative High-Throughput drug screen in 47 multiple myeloma cell lines against the NCATS MIPE library collection: KMS20_JCRB cell viability assay (AID 1918973); conditions: CellTiter-Glo ATP, 48 h; viability (% of DMSO): at 45.8 µM (top of the series); also: nearly all actives have a fitted effect of over 45% in size
Method in brief: (§1)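 We plated 500 myeloma cells per well, pinned in MIPE 4.0 compounds, and incubated for 48 hours at 37C. ATP was then quantified with CellTiter-Glo, with DMSO and media-only wells defining 100% and 0%.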

[2] = Quantitative High-Throughput drug screen in 47 multiple myeloma cell lines against the NCATS MIPE library collection: KMS21BM_JCRB cell viability assay (AID 1918974); conditions: ATP luminescence, 48 h; viability: at 45.8 µM (top of the series) unless noted
Method in brief: as §1

[3] = Quantitative High-Throughput drug screen in 47 multiple myeloma cell lines against the NCATS MIPE library collection: MMM1_PLB cell viability assay (AID 1918976); also: nearly all actives have a fitted effect of over 35% in size
Method in brief: (§2)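 500 cells/well per myeloma line exposed to pinned MIPE 4.0 compounds for 48 h at 37 °C, 5% CO2. Viability read as ATP by CellTiter-Glo luminescence, normalised to DMSO-only (100%) and media-only (0%) wells.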

[4] = Quantitative High-Throughput drug screen in 47 multiple myeloma cell lines against the NCATS MIPE library collection: MOLP8_DSMZ cell viability assay (AID 1918977); conditions: MOLP8 myeloma viability, CellTiter-Glo ATP luminescence, 48 h; viability (% of control): at 45.8 µM (top of the series); also: nearly all actives have a fitted effect of over 45% in size
Method in brief: as §2

[5] = Quantitative High-Throughput drug screen in 47 multiple myeloma cell lines against the NCATS MIPE library collection: NCIH929_DSMZ cell viability assay (AID 1918978); also: nearly all actives have a fitted effect of over 35% in size
Method in brief: as §2

[6] = Quantitative High-Throughput drug screen in 47 multiple myeloma cell lines against the NCATS MIPE library collection: OCIMY1_PLB cell viability assay (AID 1918979); conditions: OCI-MY1 myeloma viability, CellTiter-Glo ATP, 48 h; viability: at 45.8 µM (top of the series) unless noted; also: nearly all actives have a fitted effect of over 35% in size
Method in brief: as §2

[7] = Quantitative High-Throughput drug screen in 47 multiple myeloma cell lines against the NCATS MIPE library collection: LP1_DSMZ cell viability assay (AID 1918982); conditions: LP1 myeloma viability, CellTiter-Glo ATP luminescence, 48 h; viability (% of control): at 45.8 µM (top of the series); also: nearly all actives have a fitted effect of over 35% in size
Method in brief: as §2

[8] = Quantitative High-Throughput drug screen in 47 multiple myeloma cell lines against the NCATS MIPE library collection: L363_DSMZ cell viability assay (AID 1918984); conditions: L363 myeloma viability, CellTiter-Glo ATP luminescence, 48 h; viability (% of control): at 45.8 µM (top of the series); also: nearly all actives have a fitted effect of over 40% in size
Method in brief: as §2

[9] = Quantitative High-Throughput drug screen in 47 multiple myeloma cell lines against the NCATS MIPE library collection: KMS34_JCRB cell viability assay (AID 1918985); conditions: KMS34 myeloma viability, CellTiter-Glo ATP luminescence, 48 h; viability, percent of control: at 45.8 µM (top of the series); also: nearly all actives have a fitted effect of over 40% in size
Method in brief: as §2

[10] = Quantitative High-Throughput drug screen in 47 multiple myeloma cell lines against the NCATS MIPE library collection: OCIMY7_PLB cell viability assay (AID 1918987); conditions: OCI-MY7 myeloma viability, CellTiter-Glo ATP, 48 h; viability (% of DMSO): at 45.8 µM (top of the series); also: nearly all actives have a fitted effect of over 65% in size
Method in brief: as §2

[11] = Quantitative High-Throughput drug screen in 47 multiple myeloma cell lines against the NCATS MIPE library collection: OPM1_PLB cell viability assay (AID 1918989); also: nearly all actives have a fitted effect of over 40% in size
Method in brief: as §2

[12] = Quantitative High-Throughput drug screen in 47 multiple myeloma cell lines against the NCATS MIPE library collection: SKMM1_PLB cell viability assay (AID 1919863); conditions: SKMM1 myeloma viability, CellTiter-Glo ATP, 48 h; viability: hits give low values; also: nearly all actives have a fitted effect of over 35% in size
Method in brief: as §2

[13] = Quantitative High-Throughput drug screen in 47 multiple myeloma cell lines against the NCATS MIPE library collection: U266_ATCC cell viability assay (AID 1919864); conditions: U266 myeloma viability, CellTiter-Glo ATP luminescence, 48 h; viability (% of DMSO control): at 45.8 µM (top of the series); also: nearly all actives have a fitted effect of over 35% in size
Method in brief: as §2

[14] = Quantitative High-Throughput drug screen in 47 multiple myeloma cell lines against the NCATS MIPE library collection: XG6_PLB cell viability assay (AID 1919865); conditions: XG6 myeloma viability, CellTiter-Glo ATP luminescence, 48 h; viability (% of control): at 45.8 µM (top of the series); also: nearly all actives have a fitted effect of over 40% in size
Method in brief: as §2

[15] = Quantitative High-Throughput drug screen in 47 multiple myeloma cell lines against the NCATS MIPE library collection: XG1_PLB cell viability assay (AID 1919866); conditions: CellTiter-Glo ATP, 48 h; viability: at 45.8 µM (top of the series); also: nearly all actives have a fitted effect of over 35% in size
Method in brief: as §2

[16] = Quantitative High-Throughput drug screen in 47 multiple myeloma cell lines against the NCATS MIPE library collection: KMS26_JCRB cell viability assay (AID 1918975); conditions: KMS26 myeloma cells viability, CellTiter-Glo ATP, 48 h; viability (% of DMSO): at 45.8 µM (top of the series); also: nearly all actives have a fitted effect of over 45% in size
Method in brief: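 Relative luminescence from CellTiter-Glo served as the viability signal, referenced to DMSO-treated (100%) and cell-free medium (0%) controls. Treatment lasted 48 hours at 37C with 500 cells per well.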

[17] = Quantitative High-Throughput drug screen in 47 multiple myeloma cell lines against the NCATS MIPE library collection: MM1S_ATCC cell viability assay (AID 1918980); also: nearly all actives have a fitted effect of over 45% in size
Method in brief: as §2

[18] = Quantitative High-Throughput drug screen in 47 multiple myeloma cell lines against the NCATS MIPE library collection: MM1R_ATCC cell viability assay (AID 1918981); also: nearly all actives have a fitted effect of over 35% in size
Method in brief: as §2

[19] = Quantitative High-Throughput drug screen in 47 multiple myeloma cell lines against the NCATS MIPE library collection: KMS28PE_JCRB cell viability assay (AID 1918983); also: nearly all actives have a fitted effect of over 35% in size
Method in brief: as §2

[20] = Quantitative High-Throughput drug screen in 47 multiple myeloma cell lines against the NCATS MIPE library collection: OCIMY5_PLB cell viability assay (AID 1918988); conditions: OCI-MY5 myeloma viability, ATP luminescence, 48 h; viability, % of control: at 45.8 µM (top of the series); also: nearly all actives have a fitted effect of over 65% in size;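 as to viability, % of control: 100% = DMSO-treated wells and 0% = wells with media alone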
Method in brief: as §2
Potency is read from the fitted curve at half-maximal effect.

CC(C)(N)C(=O)N[C@H](COCc1ccccc1)C(=O)N1CCC2(CC1)CN(S(C)(=O)=O)c1ccccc12
inconclusive: Potency [1] 20.9 µM [cytotoxic, partial curve, poor fit] | Potency [2] 7.43 µM [rising, full curve, poor fit] | Potency [4] 0.0132 µM [cytotoxic, full curve, poor fit] | Potency [5] 20.9 µM [cytotoxic, partial curve, poor fit] | Potency [6] 29.6 µM [cytotoxic, single point] | Potency [8] 0.0017 µM [cytotoxic, full curve, poor fit] | Potency [10] 1.18 µM [cytotoxic, full curve, poor fit] | Potency [11] 3.72 µM [cytotoxic, partial curve, poor fit] | Potency [12] 16.6 µM [cytotoxic, partial curve, poor fit] | Potency [13] 26.4 µM [cytotoxic, single point] | Potency [14] 14.8 µM [cytotoxic, partial curve, poor fit] | Potency [15] 16.6 µM [cytotoxic, partial curve, poor fit]
active: Potency [3] 23.5 µM | Potency [7] 16.6 µM | Potency [9] 14.8 µM

CN1CCN(c2ccc3nc(-c4c(N)c5c(F)cccc5[nH]c4=O)[nH]c3c2)CC1
inconclusive: Potency [7] 6.62 µM [cytotoxic, partial curve]
active: Potency [1] 1.32 µM | Potency [2] 4.69 µM | Potency [16] 29.6 µM | Potency [6] 18.7 µM | Potency [17] 16.6 µM | Potency [8] 2.96 µM | Potency [9] 16.6 µM | Potency [10] 3.32 µM | Potency [12] 18.7 µM

COc1cc2nc(N(C)CCCNC(=O)C3CCCO3)nc(N)c2cc1OC (stereo unspecified)
inconclusive: Potency [2] 0.0033 µM [rising, full curve, poor fit] | Potency [3] 0.0012 µM [rising, full curve] | Potency [4] 0.0026 µM [rising, full curve, poor fit] | Potency [6] 0.0023 µM [rising, full curve] | Potency [18] 0.0017 µM [rising, full curve, poor fit] | Potency [19] 0.0017 µM [rising, full curve, poor fit] | Potency [8] 0.0105 µM [rising, full curve, poor fit] | Potency [9] 0.0012 µM [rising, full curve] | Potency [10] 0.0019 µM [rising, full curve, poor fit] | Potency [20] 0.264 µM [rising, full curve] | Potency [11] 0.0023 µM [rising, full curve, poor fit] | Potency [12] 0.0013 µM [rising, full curve]
inactive: Potency [1] | Potency [17] | Potency [14]

CCC[C@H]1C[C@H](C(=O)N[C@@H]([C@@H]2O[C@@H](SC)[C@@H](O)[C@@H](O)[C@@H]2O)[C@H](C)Cl)N(C)C1
inactive: Potency [1] | Potency [4] | Potency [5] | Potency [17] | Potency [7] | Potency [8] | Potency [9] | Potency [10] | Potency [20] | Potency [11] | Potency [14]
inconclusive: Potency [2] 9.35 µM [cytotoxic, partial curve, poor fit] | Potency [3] 0.0023 µM [rising, full curve] | Potency [12] 6.62 µM [rising, partial curve, poor fit] | Potency [13] 6.62 µM [rising, partial curve, poor fit]

CC(C)(F)C[C@H](N[C@@H](c1ccc(-c2ccc(S(C)(=O)=O)cc2)cc1)C(F)(F)F)C(=O)NC1(C#N)CC1
inactive: Potency [17] | Potency [18] | Potency [9] | Potency [13]
inconclusive: Potency [1] 0.0042 µM [cytotoxic, full curve, poor fit] | Potency [2] 0.0037 µM [rising, full curve] | Potency [3] 11.8 µM [cytotoxic, partial curve, poor fit] | Potency [4] 23.5 µM [cytotoxic, partial curve, poor fit] | Potency [6] 0.0017 µM [rising, full curve, poor fit] | Potency [19] 16.6 µM [cytotoxic, partial curve, poor fit] | Potency [8] 2.64 µM [cytotoxic, full curve, poor fit] | Potency [10] 0.332 µM [cytotoxic, full curve, poor fit] | Potency [20] 37.2 µM [cytotoxic, single point] | Potency [12] 0.526 µM [cytotoxic, full curve, poor fit]

Cc1cc(-c2nnc3n2CCCCC3)c(C)n1-c1ccccc1
inactive: Potency [5] | Potency [7] | Potency [15]
active: Potency [6] 0.0012 µM
inconclusive: Potency [1] 13.2 µM [cytotoxic, partial curve, poor fit] | Potency [2] 16.6 µM [cytotoxic, single point] | viability (% of DMSO) [16] 104% [cytotoxic] | Potency [17] 20.9 µM [cytotoxic, partial curve, poor fit] | Potency [18] 11.8 µM [cytotoxic, partial curve, poor fit] | viability (% of control) [8] 73.8% [cytotoxic] | Potency [9] 10.5 µM [cytotoxic, full curve, poor fit] | Potency [10] 0.0013 µM [rising, full curve, poor fit] | Potency [12] 11.8 µM [cytotoxic, partial curve, poor fit] | Potency [14] 0.001 µM

O=c1c(O)c(-c2ccc(O)cc2O)oc2cc(O)cc(O)c12
inactive: Potency [4] | Potency [11] | viability [12] 122% | Potency [13] | Potency [14]
inconclusive: Potency [1] 37.2 µM [cytotoxic, single point] | Potency [2] 33.2 µM [rising, partial curve] | Potency [3] 1.32 µM [cytotoxic, full curve, poor fit] | Potency [5] 3.32 µM [cytotoxic, full curve] | Potency [18] 6.62 µM [cytotoxic, full curve, poor fit] | Potency [7] 1.48 µM [cytotoxic, full curve, poor fit] | Potency [19] 0.001 µM [cytotoxic] | Potency [8] 0.0074 µM [cytotoxic, full curve, poor fit] | Potency [9] 0.935 µM [cytotoxic, full curve, poor fit] | Potency [10] 0.833 µM [cytotoxic, full curve, poor fit] | Potency [20] 9.35 µM [cytotoxic, full curve, poor fit]

N#Cc1c(NC(=O)c2cccc3ccccc23)sc2c1CCCC2
inconclusive: Potency [1] 0.0833 µM [cytotoxic, full curve, poor fit] | Potency [4] 1.18 µM [cytotoxic, full curve] | Potency [7] 0.662 µM [cytotoxic, full curve] | Potency [13] 2.96 µM [cytotoxic, partial curve]
active: Potency [2] 0.526 µM | Potency [16] 3.32 µM | Potency [14] 0.148 µM

N#CC(=C1Nc2ccccc2S1)c1ccnc(OCc2ccc(CN3CCOCC3)cc2)n1
inconclusive: Potency [1] 0.296 µM [cytotoxic, full curve, poor fit] | Potency [4] 5.26 µM [cytotoxic, partial curve, poor fit] | Potency [6] 33.2 µM [cytotoxic, single point] | Potency [19] 33.2 µM [cytotoxic, single point] | Potency [10] 10.5 µM [cytotoxic, full curve, poor fit] | Potency [12] 37.2 µM [cytotoxic, single point]
active: Potency [2] 0.0264 µM | Potency [3] 14.8 µM | Potency [5] 4.69 µM | Potency [7] 20.9 µM | Potency [9] 18.7 µM

CC(C)c1nc(CN(C)C(=O)N[C@H](C(=O)N[C@@H](Cc2ccccc2)C[C@H](O)[C@H](Cc2ccccc2)NC(=O)OCc2cncs2)C(C)C)cs1
inconclusive: viability (% of DMSO) [1] 69.6% [cytotoxic] | Potency [2] 3.32 µM [cytotoxic, partial curve, poor fit] | Potency [3] 23.5 µM [cytotoxic, partial curve] | Potency [4] 20.9 µM [cytotoxic, partial curve, poor fit] | Potency [5] 0.0166 µM [rising, full curve, poor fit] | Potency [6] 1.66 µM [cytotoxic, full curve, poor fit] | Potency [17] 13.2 µM [cytotoxic, partial curve, poor fit] | Potency [18] 26.4 µM [cytotoxic, partial curve, poor fit] | Potency [19] 23.5 µM [cytotoxic, partial curve] | Potency [20] 33.2 µM [cytotoxic, partial curve, poor fit] | Potency [12] 18.7 µM [cytotoxic, partial curve, poor fit]
active: Potency [7] 16.6 µM | Potency [9] 16.6 µM | Potency [10] 20.9 µM
inactive: Potency [8]

COC(=O)[C@H](CCCN=C(N)N)NS(=O)(=O)c1ccc(C)cc1
inactive: Potency [1] | Potency [2] | Potency [5] | Potency [17] | Potency [8] | Potency [9] | Potency [20] | Potency [11] | viability [12] 122%
inconclusive: Potency [3] 0.0059 µM [rising, full curve, poor fit] | Potency [4] 0.0021 µM [rising, full curve, poor fit] | Potency [10] 0.0019 µM [rising, full curve] | Potency [13] 0.0118 µM [rising, full curve, poor fit] | Potency [15] 18.7 µM [cytotoxic, partial curve, poor fit]

From PubChem BioAssay (NCATS)
